Test results from PubChem BioAssay AID493014 (National Center for Advancing Translational Sciences (NCATS), 2011).
Screen size: about 340,000 compounds; about 170 (0.05%) were called active. Inconclusive means that the source gave no clear call. Such entries were picked first, then a sample of the others. The call rests on the fitted dose curve; in most records, active means well fitted inhibition curve with a large enough effect in the signal ratio, with a control signal flat (not every such curve was filed as active); inconclusive means small, poorly fitted or top-dose-only effect, or effect the other way, or a change in a side signal; inactive means flat fitted curve, though single readings scatter; the % refers to the signal ratio. A potency beside an inconclusive call is a rough fit, not a confirmed value.

assay: qHTS Assay to Find Inhibitors of Chronic Active B-Cell Receptor Signaling; conditions: ABC-DLBCL IkBa-CBG/CBR reporter, luminescence ratio (green luciferase fused to IkBa over red control in TMD8 lymphoma cells), 4 h; activity change, negative = inhibition: at 46.1 µM (top of the series);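 on activity change, negative = inhibition: plate controls were basal doxycycline-induced cells for no effect and cells given 10 µM MG132 for full effect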
Outline: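 TMD8 human ABC-DLBCL cells with doxycycline-inducible IκBα–green luciferase fusion and unfused red luciferase, in 0.5% FBS medium; compounds up to 46 uM, 4 h at 37C. Green/red luminescence ratio, filter-overlap corrected, fitted to concentration-response curves.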
Potency means the concentration at half of the fitted maximal effect.

Row | Structure (SMILES) | activity change, negative = inhibition | Potency
1 | CC(=O)c1cccc(NC(=S)NC(=O)Cc2ccc(Cl)cc2)c1 | inactive | 
2 | O=C(Nc1ccccc1OC(F)F)c1ccc(-n2cncn2)c([N+](=O)[O-])c1 |  | inconclusive: 11.6 µM [falling, partial curve, poor fit]
3 | Oc1ccc(-c2cn3ccccc3n2)cc1O | inconclusive: -6.95% | 
4 | CC1=Nc2cc(C(=O)NCCCOC(C)C)ccc2Sc2ccccc21 |  | inconclusive: 14.1 µM [falling, single point]
5 | COC(=O)c1ccccc1NC(=O)CSc1nncn1-c1cccnc1 |  | inconclusive: 35.5 µM [falling, single point]
6 | Cc1ccc(OCCCn2cc(C#N)c3ccccc32)cc1 | inconclusive: 15% | 
7 | COc1ccc(C(=O)NCC(=O)OCCOc2ccc(Cl)cc2)cc1OC | inconclusive: -1.38% | 
8 | COc1ccc(OC)c(NC(=O)NCCc2c[nH]c3ccccc23)c1 | inconclusive: -18.1% | 
9 | CSc1nnc(C(C)(C)C)c(=O)n1/N=C/c1c(O)ccc2ccccc12 |  | inconclusive: 31.6 µM [falling, partial curve, poor fit]
10 | COc1ccccc1CNC(=O)C(=O)NCC1OCCN1S(=O)(=O)c1ccc(Br)cc1 (stereo not drawn) | inactive | 
11 | O=C(O)Cn1cc(/C=C2/NC(=O)N(c3ccc(Cl)cc3)C2=O)c2ccccc21 | inconclusive: 5.99% | 
12 | CC(CN1C(C)CCCC1C)OC(=O)c1ccc(Cl)cc1Cl (stereo not drawn) | inactive | 
13 | C/C(=N/NC(=O)c1cccc(C)c1)c1c(O)cc(C)oc1=O |  | inconclusive: 18.4 µM [falling, partial curve]
14 | NC1=NC(=O)/C(=C/c2cn(Cc3ccccc3)c3ccccc23)S1 |  | inconclusive: 18.4 µM [falling, single point]
15 | COCCCN(C(=O)c1ccccc1)c1nc(-c2ccc(OC)cc2)cs1 | inactive | 
16 | O=C(Nc1cccc(C(F)(F)F)c1)c1cnccn1 | inconclusive: 17.4% | 
17 | Cn1c(CCNS(=O)(=O)c2ccccc2)nc2cc([N+](=O)[O-])ccc21 | inactive | 
18 | CCN(CC)S(=O)(=O)c1ccc(N2CCOCC2)c(NC(=O)c2ccc3c(c2)OCCO3)c1 | inconclusive: 7.42% | 
19 | Cc1cc(C(=O)N2CCCC(C(=O)c3cccc(C(F)(F)F)c3)C2)n[nH]1 (stereo not drawn) | inactive | 
20 | COc1ccc(CCNC(=O)C2CCC(CNS(=O)(=O)c3ccc(C)cc3)CC2)cc1OC (stereo not drawn) | inconclusive: 3.3% | 
21 | Cc1cccc2c(=O)c(C(=O)N3CCCCCC3)c[nH]c12 | inconclusive: -3.19% | 

Row | Structure (SMILES) | activity change, negative = inhibition | Potency
22 | COc1ccc(S(=O)(=O)N(C)C)cc1NCC(=O)Nc1ccc(F)cc1F | inactive | 
23 | COC(=O)[C@@]12CCCCN1[C@H](c1ccc(-c3ccc(F)cc3)cc1)[C@@H]1C(=O)N(C)C(=O)[C@@H]12 |  | inconclusive: 20.6 µM [falling, single point]
24 | CS(=O)(=O)C1=NSC2=NC(=O)/C(=C\c3ccc(-c4ccccc4)o3)C(=N)N21 | inconclusive: -17.1% | 
25 | COc1ccc(N=C(C)C2=C(O)c3ccccc3C2=O)cc1 | inconclusive: 6.73% | 
26 | CC(=O)c1ccccc1OCCOc1ncnc2sccc12 | inactive | 
27 | Cc1c(C)n(C(=O)CN2CCN(c3ccccn3)CC2)c2ccccc12 | inactive | 
28 | CC(C)CCn1cnc2c(NCc3ccccc3)ncnc21 |  | inconclusive: 18.4 µM [falling, partial curve]
29 | COc1ccc(CCNC(=O)CCn2cccc2)cc1OC | inactive | 
30 | COc1ccc(CCN(C(=O)c2ccco2)C(C(=O)NC2CCCC2)c2ccncc2)cc1OC (stereo not drawn) | inconclusive: -14.1% | 
31 | CC(C)c1ccc2oc(-c3ccc(NC(=O)c4ncn[nH]4)cc3)nc2c1 |  | inconclusive: 25.9 µM [falling, partial curve]
32 | CCOC(=O)C1CCN(C(=O)Nc2ccc3nccnc3c2)CC1 |  | inconclusive: 16.4 µM [falling, single point]
33 | CCOC(=O)N1CCN(C(=O)c2ccc(CSc3ccc(Cl)cc3)cc2)CC1 | inactive | 
34 | O=C(NNc1ncnc2c1cnn2-c1ccc(F)cc1)c1ccco1 | inactive | 
35 | CCOc1ccc(C(=O)N2CCN(Cc3ccccc3)CC2)cc1 | inconclusive: 5.92% | 
36 | COc1cc(CNCCCN2CCOCC2)c(Br)cc1OCC(=O)Nc1ccccc1C | inconclusive: 3.15% | 
37 | Fc1ccccc1COc1ccc(Br)cc1CNCc1cccnc1 | inconclusive: 1.26% | 
38 | Cc1ccc(NC(=O)C(C)SCc2nc3sc(C)c(C)c3c(=O)[nH]2)nc1 (stereo not drawn) | inconclusive: 7.07% | 
39 | CCC(C)NC(=O)Cn1ccc2cc(S(=O)(=O)N3CCCCC3)ccc21 (stereo not drawn) |  | inconclusive: 1 µM [rising, single point]
40 | COc1ccc(NCC(=O)N/N=C(\C)c2cc3ccccc3o2)cc1 | inactive | 
41 | Cc1cc(NC(=O)c2cccc(C(=O)Nc3cc(C)on3)n2)no1 | inconclusive: 0.21% | 
42 | COc1ccc(NC(=O)CN(C)C(=O)C(C)N2C(=O)c3ccccc3C2=O)cc1 (stereo not drawn) | inactive | 

Row | Structure (SMILES) | activity change, negative = inhibition | Potency
43 | Cn1c(=O)[nH]c2ncccc21 | inconclusive: -11.5% | 
44 | O=C(COC(=O)c1ccccc1O)Nc1cccc(S(=O)(=O)NC2=NCCCCC2)c1 | inactive | 
45 | O=C(NCc1cccs1)Nc1ccc(Cl)cc1 |  | inconclusive: 20.6 µM [falling, single point]
46 | CCOc1ccccc1Nc1nnc(SCc2ccc(C(=O)OC)o2)s1 |  | inconclusive: 15.8 µM [falling, single point]
47 | COCCCNc1nc(=S)[nH]c2cc(OC)c(OC)cc12 | inactive | 
48 | CC(C)c1nc(CNC(=O)CCc2nnc(-c3ccsc3)o2)cs1 | inconclusive: 4.67% | 
49 | Cc1cc(/C=c2/sc3nc4ccccc4n3c2=O)c(C)n1-c1ccccn1 | inconclusive: -0.835% | 
50 | Cc1cccc(N2CCN(C(=O)c3cccc(N4CCCC4=O)c3)C(C)C2)c1 (stereo not drawn) |  | inconclusive: 20 µM [falling, partial curve, poor fit]
51 | CCCCC(=O)NNC(=S)NC(=O)c1ccc([N+](=O)[O-])cc1 | inconclusive: 4.26% | 
52 | COc1ccc(CNC(=O)CN(Cc2ccc(Cl)cc2)S(=O)(=O)c2ccccc2)cc1 | inconclusive: -8.44% | 
53 | Cc1cc(C)cc(NC(=O)COC(=O)CCC2CCCC2)c1 | inactive | 
54 | O=C(Nc1cccc2nsnc12)c1ccc(-c2ccc(Br)cc2)o1 | inactive | 
55 | O=C(Nc1ccon1)c1cc(-c2ccccc2)nc2ccccc12 | inconclusive: 13.7% | 
56 | CSc1ccccc1NC(=O)CN(C)CC(=O)c1c(C)[nH]c2ccccc12 |  | inconclusive: 29.1 µM [falling, single point]
57 | O=C(c1ccc(COc2ccccc2[N+](=O)[O-])o1)N1CCCCC1 | inconclusive: -8.57% | 
58 | COc1cccc(NC(=O)CN2C(=O)NC(C)(CCC(C)C)C2=O)c1 (stereo not drawn) |  | inconclusive: 12.6 µM [falling, partial curve]
59 | Cc1noc(/C=C/N(C)C)c1S(=O)(=O)N1CCCC(C(=O)NC2CCCCC2C)C1 (stereo not drawn) |  | inconclusive: 2.91 µM [rising, single point]
60 | CCC1(c2ccccc2)NC(=O)N(CC(=O)NCCN2C(=O)S/C(=C\c3cccnc3)C2=O)C1=O (stereo not drawn) | inconclusive: -12.1% | 
61 | CCc1nnc(NC(=O)CN2CCN(S(C)(=O)=O)CC2)s1 | inconclusive: 9.65% | 
62 | CCOc1cc(NC(=S)NC)c(OCC)cc1NC(=O)c1ccc(OC)cc1 | inconclusive: 7.49% | 
63 | O=C(CSc1cccs1)Nc1ccc(Cl)cc1 | inconclusive: 0.464% | 

Row | Structure (SMILES) | activity change, negative = inhibition | Potency
64 | CCOC(=O)c1c(C)n(C)c2ccc(O)c(CN3CCCCC3)c12 | inconclusive: -23.1% | 
65 | OCCNc1nc(NCc2ccccc2)c2ccccc2n1 | inactive | 
66 | COCc1cc(C)nc(SCC[N+](C)(C)CC(=O)c2ccccc2)c1C#N |  | inconclusive: 11.2 µM [rising, partial curve, poor fit]
67 | COC(=O)c1cc2c([nH]c3ccccc32)c(C)n1 | inconclusive: -5.73% | 
68 | COc1ccc(NS(=O)(=O)c2ccc3oc(SC4CCOC4=O)nc3c2)cc1 (stereo not drawn) | inactive | 
69 | Cc1ccc(C(=O)N/C(=C/c2ccc(-c3cccc([N+](=O)[O-])c3)o2)C(=O)NCCCN(C)C)cc1 | inconclusive: -12.2% | 
70 | O=C(O)c1ccc(-n2nnnc2SCc2cccc(Br)c2)cc1 | inconclusive: 8.9% | 
71 | CCc1ccc(/C=N/NC(=O)c2cc(-c3cccc([N+](=O)[O-])c3)n[nH]2)cc1 | inconclusive: 12.1% | 
72 | Cc1ccccc1-c1noc(-c2ccc(Cl)cc2)n1 | inactive | 
73 | COc1ccccc1/C=C1/SC(=S)N(C(C)C(=O)NC2C=CS(=O)(=O)C2)C1=O (stereo not drawn) |  | inconclusive: 35.5 µM [falling, single point]
74 | C=CCn1c(SCCN2CCCCC2)nc2c1c(=O)[nH]c(=O)n2C | inconclusive: 17.6% | 
75 | O=C(COC(=O)c1cc(NS(=O)(=O)c2cccs2)ccc1O)Nc1ccc(F)c(F)c1F | inconclusive: -26.6% | 
76 | Cc1ccc(NC(=O)C/C(N)=N/O)cc1Cl | inconclusive: 10.1% | 
77 | Cc1ccc(-n2c(=S)sc3c(=O)n(-c4ccccc4C)c(SCC(=O)O)nc32)cc1C | inactive | 
78 | CCCCc1nnc(NC(=O)c2oc3ccc(OC)cc3c2C)s1 | inactive | 
79 | Cc1ccc(-c2cc(C(=O)NCc3ccco3)no2)cc1 | inconclusive: -7.89% | 
80 | COc1ccc(C(=O)CSc2nnc(CNc3ccc(F)cc3)o2)cc1 | inconclusive: 23.3% | 
81 | O=C(N/N=C/c1ccc2c(c1)OCO2)c1cc(-c2ccccc2Cl)nc2ccccc12 | inconclusive: -9.54% | 
82 | CC(=O)NCCNc1nc2c(-c3ccccc3)nnn2c2ccccc12 |  | inconclusive: 11.2 µM [falling, partial curve]
83 | Cc1ccccc1-n1nc(C(=O)c2cccs2)cc(-c2nc3ccccc3[nH]2)c1=N | inactive | 

In the list so far, two have a cyano group.
Row | Structure (SMILES) | activity change, negative = inhibition | Potency
6 | Cc1ccc(OCCCn2cc(C#N)c3ccccc32)cc1 | inconclusive: 15% | 
66 | COCc1cc(C)nc(SCC[N+](C)(C)CC(=O)c2ccccc2)c1C#N |  | inconclusive: 11.2 µM [rising, partial curve, poor fit]
